Results from article PMC10163288.
The other results are listed elsewhere or left out.

B1: il2ra_site1_1z92_normal_mot_HHH_b1_05017_af2_000000137_0001_42_54_H_._HHH_b2_03124_0001_0000300027_0000001_0_af2pred_0001_af2pred (protein)
chain: SSSSSSSDVEEEAEELLKELEELGDERALKALRFALRAVRLLGSPKAREFLEEMLKDLSSSSSSS
B2: il2ra_site1_1z92_sap_17_mot_1581cc1c700002558836ca695aafbf97_0001_1_af2_000000099_0001_17_32_H_._06fb79ff5b0635ea054e4773f75fe636_0001_af2_0001_0000300031_00000 … (protein)
chain: SSSSDLEERAQEIVEELVEELNLSEEIEEALRKDAEAAVRLGLSEKSIEIALRRAAQRALSSSSS
B3: il2ra_site1_2b5i_sap_9_mot_ems_3hM_3687_af2_000000248_0001_45_64_H_._f30f37b9280b12e082159cc05f8864eb_0001_1_af2_0001_0000500021_0000001_0_0001_af2pred_dldesign … (protein)
chain: SSSSSSRVRELFLEAEALKKAGKEEEAKKVAEEALAEARAAKMPALARLLELALKNLESSSSSSS
B4: il2ra_site2_3nfp_sap_14_mot_HHH_b1_02297_000000279_0001_41_58_H_._HHH_b2_00015_0001_0000300025_0000001_1_0001 (protein)
chain: SSSSDKSEEYLRIALELAEEALEAGDEESVRSILETAKAAAESNNDEEVLRLLREIEEELSSSSS
B5: il2ra_site2_2erj_sap_26_mot_HHH_b2_08005_af2_000000017_0001_39_52_H_._5f42aca8a0c299d7b7d7982f3e471efe_0001_0001_0000400050_0000001_0_0001 (protein)
chain: SSSSDLEEEVERIEKEAEELYKNGNPEEALRLLSELFDELYQLGDHELAARVIKLVAELARSSSS
B6: il2ra_site2_3nfp_normal_mot_HHH_b2_00531_000000244_0001_40_57_H_._HHH_b2_00538_0001_0000500026_0000001_0_af2pred_0001_1_af2pred_swapped (protein)
chain: SSSSSDEEEVEERIEQLLEEAKKIDDEEELQIVLLEAAVLALLLGDPEIIREVRRVAEELSSSSS
B7: il2ra_site1_3nfp_sap_14_mot_HHH_b1_07910_000000017_0001_1_16_H_._5d1becb6a9d54c9d42db3f0d03ab68b4_0001_af2_0001_0000200015_0000001_0_0001 (protein)
chain: SSSSSDNVEAARRFDELLKQLKHVSEEEQEEILRELEEIAEEFNTPLARRLVEQFKRLLSSSSSS
B8: il2ra_site2_2erj_normal_mot_HHH_b2_06545_000000262_0001_21_37_H_._HHH_b1_03255_0001_0000800014_0000001_0_af2pred_0001_1_af2pred_swapped (protein)
chain: SSSSTEEEIEELIERIEELIKRGDREEAHELLWEALELALKIDNEELEERLRRLREEVEGSSSSS
B9: il2ra_site1_2b5i_sap_10_mot_HHH_b1_06833_000000178_0001_1_19_H_._HHH_b2_00933_0001_0000100002_0000001_1_0001 (protein)
chain: SSSSTEEAKELVRFVLRLAWKFGLSLEQMQELAELLDELVARGVDPEEIRRLLEELAKELSSSSS
B10: il2ra_site1_1z92_normal_mot_HHH_b1_05331_000000138_0001_42_56_H_._HHH_b2_00843_0001_0000100001_0000001_0_af2pred_0001_af2pred_1 (protein)
chain: SSSSTDSSREAEEILREILKLLKEGDPEQVEELLERLERLAEEENDPAAKRAVEILKKRLDSSSS
B11: il2ra_site1_3nfp_sap_20_mot_HHH_b2_05589_af2_000000060_0001_42_57_H_._HHH_b1_00249_0001_0000500016_0000001_0_0001_af2pred_0001_af2pred_1 (protein)
chain: SSSSDELEELLKELEEAVEEGDEELVKELARKVFELAKKLKDDEVAREVARLLLEFFRRLSSSSS
B12: il2ra_site2_3nfp_normal_mot_HHH_b1_00660_af2_000000090_0001_40_57_H_._HHH_b1_00664_af2_0001_0000300018_0000001_0_af2pred_0001_af2pred (protein)
chain: SSSSDEEEEEIRRLLEEAKRIEDPEEAAKVVREAALLAFELNNFELLAEALKLLRKLIRDSSSSS
B13: il2ra_site1_3nfp_normal_mot_HHH_b1_01335_af2_000000105_0001_39_53_H_._HHH_b1_07427_af2_0001_0000600042_0000001_1 (protein)
chain: SSSSDERLQRIYELMQKAAKIPDDEEVKKIIEEALELAERRGDEILFEKLERALEFLKRGSSSSS
B14: il2ra_site1_3nfp_normal_mot_e23a5047defaa1e2c88e76f09435f1ea_0001_000000111_0001_16_31_H_._b0b8df4b7fc8e9004491a89afff21cfb_0001_af2_0001_0000800086_0000001_0 (protein)
chain: DKAIEYAIKQFKKDGIPPEKIVEFLLEAAKRAGLPPEELQKILEELLEKTGDPLLEELLELLEER
B15: il2ra_site2_2erj_sap_21_mot_HHH_b1_06344_af2_000000198_0001_42_57_H_._5e8ab3ebaa49a9e680896593b179b5f8_0001_af2_0001_0000100023_0000001_0_0001 (protein)
chain: SSSSDEELRELYELLNELMRLLSRGDEERLEELLKQLEELAKKLNSEAAREIIERVEKRLSSSSS
B16: il2ra_site2_3nfp_normal_mot_HHH_b2_07651_000000186_0001_1_16_H_._HHH_b1_01772_af2_0001_0000400026_0000001_0 (protein)
chain: SSSSSSDDEELEIYERVIELAKLNTEESREELEELLEEAKELGNAVLFRSIESFLEALSSSSSSS
B17: il2ra_site2_3nfp_sap_12_mot_HHH_b1_02297_000000279_0001_41_58_H_._HHH_b2_04868_0001_0000100005_0000001_0_0001 (protein)
chain: SSSSSSDVEELAEEAIEKAEEAGDDKAARYLRVALELLKEAGNPSIKEVLKAAAESWKSSSSSSS
B18: il2ra_site1_2b5i_normal_mot_f5ff40796168375b462bec8614a1db4a_0001_1_000000138_0001_53_65_H_._HHH_b1_00016_0001_0000100002_0000001_0_af2pred_dldesign_0_af2pred (protein)
chain: SSSSSDPLRELVEELIEEAKKEPDKNLAHKKLLLARRVARKANDPELVARVEAVLKELESSSSSS
B19: il2ra_site2_3nfp_sap_8_mot_HHH_b1_07347_000000014_0001_1_18_H_._HHH_b1_05293_0001_0001500057_0000001_1_0001 (protein)
chain: SSSSSRETLREMIELALRALRDLGDEEAVELVEELLEEFEKTGDPKIALEVYEILLRATQSSSSS

These binders were tested against il2ra, P01589 (assay: yeast display titration).

Apparent Kd, inactive:
B1 no binding seen
B2 no binding seen
B3 no binding seen
B4 no binding seen
B5 no binding seen
B6 no binding seen
B7 no binding seen
B8 no binding seen
B9 no binding seen
B10 no binding seen
B11 no binding seen
B12 no binding seen
B13 no binding seen
B14 no binding seen
B15 no binding seen
B16 no binding seen
B17 no binding seen
B18 no binding seen
B19 no binding seen

Nothing new here: an excerpt of the list.
Apparent Kd, inactive:
B16 no binding seen
B17 no binding seen
